Assay [1] concerns the target T1, Aquifex aeolicus tau-δ-δ′ complex (Aquifex aeolicus) (UniProt O67189).
T1 sequence 1: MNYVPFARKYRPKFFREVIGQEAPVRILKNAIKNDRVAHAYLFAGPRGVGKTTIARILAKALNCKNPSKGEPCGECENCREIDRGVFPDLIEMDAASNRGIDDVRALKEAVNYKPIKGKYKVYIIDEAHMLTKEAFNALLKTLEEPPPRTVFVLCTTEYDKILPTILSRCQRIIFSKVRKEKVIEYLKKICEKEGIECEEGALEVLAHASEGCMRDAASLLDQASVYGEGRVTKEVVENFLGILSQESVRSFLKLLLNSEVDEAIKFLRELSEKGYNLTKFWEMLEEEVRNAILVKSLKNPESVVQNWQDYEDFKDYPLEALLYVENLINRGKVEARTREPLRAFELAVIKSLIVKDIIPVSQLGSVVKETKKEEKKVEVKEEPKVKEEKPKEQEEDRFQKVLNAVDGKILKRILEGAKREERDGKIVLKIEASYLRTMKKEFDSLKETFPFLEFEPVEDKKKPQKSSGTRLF
T1 sequence 2: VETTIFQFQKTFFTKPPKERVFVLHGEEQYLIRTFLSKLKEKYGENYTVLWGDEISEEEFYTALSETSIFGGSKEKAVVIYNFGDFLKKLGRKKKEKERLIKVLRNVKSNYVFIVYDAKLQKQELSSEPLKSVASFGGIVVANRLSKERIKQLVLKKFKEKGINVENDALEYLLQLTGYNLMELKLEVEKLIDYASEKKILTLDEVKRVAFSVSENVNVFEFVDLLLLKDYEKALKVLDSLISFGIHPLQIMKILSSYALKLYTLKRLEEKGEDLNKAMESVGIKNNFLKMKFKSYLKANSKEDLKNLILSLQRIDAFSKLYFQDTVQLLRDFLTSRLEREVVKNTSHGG
T1 sequence 3: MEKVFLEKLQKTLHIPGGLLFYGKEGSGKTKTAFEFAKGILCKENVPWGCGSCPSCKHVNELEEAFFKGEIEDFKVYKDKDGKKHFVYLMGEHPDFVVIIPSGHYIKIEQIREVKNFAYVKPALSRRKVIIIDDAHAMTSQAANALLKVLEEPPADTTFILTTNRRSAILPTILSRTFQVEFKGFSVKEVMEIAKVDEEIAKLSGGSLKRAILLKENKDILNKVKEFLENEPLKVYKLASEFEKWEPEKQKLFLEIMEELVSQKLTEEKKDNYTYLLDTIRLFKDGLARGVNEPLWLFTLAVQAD
Description: Superose 6 gel filtration of mixed pure subunits, SDS gel.

Assay [2] has as its target T2, Aquifex aeolicus tau subunit of DNA polymerase III (Aquifex aeolicus).
T2 sequence: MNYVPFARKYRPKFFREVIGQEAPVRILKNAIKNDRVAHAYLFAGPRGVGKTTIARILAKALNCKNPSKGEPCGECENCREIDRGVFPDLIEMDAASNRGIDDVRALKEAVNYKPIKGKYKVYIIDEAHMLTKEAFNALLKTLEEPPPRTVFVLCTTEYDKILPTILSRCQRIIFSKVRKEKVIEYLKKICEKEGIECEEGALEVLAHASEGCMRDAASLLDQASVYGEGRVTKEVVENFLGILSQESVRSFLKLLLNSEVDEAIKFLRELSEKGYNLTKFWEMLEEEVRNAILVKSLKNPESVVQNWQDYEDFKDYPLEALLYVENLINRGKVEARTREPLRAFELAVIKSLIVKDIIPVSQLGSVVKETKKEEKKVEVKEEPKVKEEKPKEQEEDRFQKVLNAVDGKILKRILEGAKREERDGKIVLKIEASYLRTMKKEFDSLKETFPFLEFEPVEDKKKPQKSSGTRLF
As to the kind of experiment: MonoQ co-elution of mixed pure subunits, SDS gel.

Results are given in words; binding and its absence hold for the method and conditions named. For some assays here: Binding seen in cells or lysates may run through a third protein. Some results given as binding are weak or reduced against the parent protein; the word gives no strength.

B1: Aquifex aeolicus α subunit of DNA polymerase III (enzyme)
chain: MSKDFVHLHLHTQFSLLDGAIKIDELVKKAKEYGYKAVGMSDHGNLFGSYKFYKALKAEGIKPIIGMEAYFTTGSRFDRKTKTSEDNITDKYNHHLILIAKDDKGLKNLMKLSTLAYKEGFYYKPRIDYELLEKYGEGLIALTACLKGVPTYYASINEVKKAEEWVKKFKDIFGDDLYLELQANNIPEQEVANRNLIEIAKKYDVKLIATQDAHYLNPEDRYAHTVLMALQMKKTIHELSSGNFKCSNEDLHFAPPEYMWKKFEGKFEGWEKALLNTLEVMEKTADSFEIFENSTYLLPKYDVPPDKTLEEYLRELAYKGLRQRIERGQAKDTKEYWERLEYELEVINKMGFAGYFLIVQDFINWAKKNDIPVGPGRGSAGGSLVAYAIGITDVDPIKHGFLFERFLNPERVSMPDIDVDFCQDNREKVIEYVRNKYGHDNVAQIITYNVMKAKQTLRDVARAMGLPYSTADKLAKLIPQGDVQGTWLSLEEMYKTPVEELLQKYGEHRTDIEDNVKKFRQICEESPEIKQLVETALKLEGLTRHTSLHAAGVVIAPKPLSELVPLYYDKEGEVATQYDMVQLEELGLLKMDFLGLKTLTELKLMKELIKERHGVDINFLELPLDDPKVYKLLQEGKTTGVFQLESRGMKELLKKLKPDSFDDIVAVLALYRPGPLKSGLVDTYIKRKHGKEPVEYPFPELEPVLKETYGVIVYQEQVMKMSQILSGFTPGEADTLRKAIGKKKADLMAQMKDKFIQGAVERGYPEEKIRKLWEDIEKFASYSFNKSHSVAYGYISYWTAYVKAHYPAEFFAVKLTTEKNDNKFLNLIKDAKLFGFEILPPDINKSDVGFTIEGENRIRFGLARIKGVGEETAKIIVEARKKYKQFKGLADFINKTKNRKINKKVVEALVKAGAFDFTKKKRKELLAKVANSEKALMATQNSLFGAPKEEVEELDPLKLEKEVLGFYISGHPLDNYEKLLKNRYTPIEDLEEWDKESEAVLTGVITELKVKKTKNGDYMAVFNLVDKTGLIECVVFPGVYEEAKELIEEDRVVVVKGFLDEDLETENVKFVVKEVFSPEEFAKEMRNTLYIFLKREQALNGVAEKLKGIIENNRTEDGYNLVLTVDLGDYFVDLALPQDMKLKADRKVVEEIEKLGVKVII
As for B1, in assay [1], the binding entry is recorded as “binds”.

B2: Aquifex aeolicus δ subunit of DNA polymerase III (protein)
chain: VETTIFQFQKTFFTKPPKERVFVLHGEEQYLIRTFLSKLKEKYGENYTVLWGDEISEEEFYTALSETSIFGGSKEKAVVIYNFGDFLKKLGRKKKEKERLIKVLRNVKSNYVFIVYDAKLQKQELSSEPLKSVASFGGIVVANRLSKERIKQLVLKKFKEKGINVENDALEYLLQLTGYNLMELKLEVEKLIDYASEKKILTLDEVKRVAFSVSENVNVFEFVDLLLLKDYEKALKVLDSLISFGIHPLQIMKILSSYALKLYTLKRLEEKGEDLNKAMESVGIKNNFLKMKFKSYLKANSKEDLKNLILSLQRIDAFSKLYFQDTVQLLRDFLTSRLEREVVKNTSHGG
As to B2, the binding result in assay [2] is “binds”.

(Values after US20040038290A1 (ROCKEFELLER UNIVERSITY, published 2004).)
